PubChem BioAssay AID1224830 | NIAID | 2016
Purpose: 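Host factors that control LPS-induced TNF expression in human macrophages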 (primary screen). Cell system: human THP-1 monocytic leukaemia cells, TNF dual-luciferase reporter clone, PMA-differentiated to macrophage-like cells. Knock-down reagent: siRNA pool against human genes, 50 nM. Timing: LPS for 4 h, given about 3 days after siRNA transfection. Treatment: bacterial LPS (TLR4 ligand), 10 ng/ml. Read-out: 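Ratio of firefly to renilla light, scaled to the plate median and expressed as a robust z-score per replicate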. Reading the numbers: TNF reporter robust z-score: higher = stronger TNF reporter response to LPS. Hit rule: 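a well is active when its z-score exceeds 2.8 or falls below -1.5; control wells carry no call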.
Here is one part, drawn at random, of about 18,000 deposited reagents. In the full data, about 2,900 (16%) were called active. 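Calls are made per well; low scores hint the gene aids the LPS response, high scores that it dampens it.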 Reagents against one gene are numbered here. Repeated entries: four replicate wells of each siRNA pool. Reagent sequences are not shown.

| Gene | reagent no. | TNF reporter robust z-score | Outcome |
| --- | --- | --- | --- |
| KCND3 (GeneID 3752) | 1 | -0.19 | inactive |
| KCND3 (GeneID 3752) | 1 | 0.79 | inactive |
| KCND3 (GeneID 3752) | 1 | -0.74 | inactive |
| KCND3 (GeneID 3752) | 1 | 0.03 | inactive |
| CIAO3 (GeneID 64428) | 1 | 0.15 | inactive |
| CIAO3 (GeneID 64428) | 1 | -0.72 | inactive |
| CIAO3 (GeneID 64428) | 1 | -0.99 | inactive |
| CMKLR2 (GeneID 2825) | 1 | -1.62 | active |
| CMKLR2 (GeneID 2825) | 1 | -0.79 | inactive |
| CMKLR2 (GeneID 2825) | 1 | -1.39 | inactive |
| CMKLR2 (GeneID 2825) | 1 | -0.71 | inactive |
| PLPBP (GeneID 11212) | 1 | -0.57 | inactive |
| PLPBP (GeneID 11212) | 1 | 0.24 | inactive |
| PLPBP (GeneID 11212) | 1 | -0.07 | inactive |
| PLPBP (GeneID 11212) | 1 | 0.12 | inactive |
| ZNF205 (GeneID 7755) | 1 | -1.87 | active |
| ZNF205 (GeneID 7755) | 1 | -0.79 | inactive |
| ZNF205 (GeneID 7755) | 1 | -1.4 | inactive |
| ZNF205 (GeneID 7755) | 1 | -0.55 | inactive |
| ATP13A5 (GeneID 344905) | 1 | 0.08 | inactive |
| ATP13A5 (GeneID 344905) | 1 | 1.49 | inactive |
| ATP13A5 (GeneID 344905) | 1 | 2.72 | inactive |
| ATP13A5 (GeneID 344905) | 1 | 2.71 | inactive |

Additional records follow.
| Gene | reagent no. | TNF reporter robust z-score | Outcome |
| --- | --- | --- | --- |
| APLNR (GeneID 187) | 1 | 1.15 | inactive |
| APLNR (GeneID 187) | 1 | 2.27 | inactive |
| APLNR (GeneID 187) | 1 | 0.63 | inactive |
| APLNR (GeneID 187) | 1 | -0.2 | inactive |
| ZNG1A (GeneID 55871) | 1 | 0.21 | inactive |
| ZNG1A (GeneID 55871) | 1 | 0.28 | inactive |
| ZNG1A (GeneID 55871) | 1 | -0.79 | inactive |
| ZNG1A (GeneID 55871) | 1 | 0.58 | inactive |
| UTY (GeneID 7404) | 1 | 1.09 | inactive |
| UTY (GeneID 7404) | 1 | 2.33 | inactive |
| UTY (GeneID 7404) | 1 | 2.02 | inactive |
| UTY (GeneID 7404) | 1 | 1.78 | inactive |
| GGA1 (GeneID 26088) | 1 | 1.02 | inactive |
| GGA1 (GeneID 26088) | 1 | 0.9 | inactive |
| GGA1 (GeneID 26088) | 1 | -0.18 | inactive |
| GGA1 (GeneID 26088) | 1 | -0.07 | inactive |
| VCY1B (GeneID 353513) | 1 | 1.73 | inactive |
| VCY1B (GeneID 353513) | 1 | 1.27 | inactive |
| VCY1B (GeneID 353513) | 1 | -0.17 | inactive |
| VCY1B (GeneID 353513) | 1 | -0.35 | inactive |
| RRM2 (GeneID 6241) | 1 | -0.2 | inactive |
| RRM2 (GeneID 6241) | 1 | -0.25 | inactive |
| RRM2 (GeneID 6241) | 1 | -0.82 | inactive |
| RRM2 (GeneID 6241) | 1 | 0.82 | inactive |
| RRM2 (GeneID 6241) | 2 | 2.08 | inactive |
| RRM2 (GeneID 6241) | 2 | 1.18 | inactive |
| RRM2 (GeneID 6241) | 2 | 3.04 | active |
| RRM2 (GeneID 6241) | 2 | 1.22 | inactive |
